Results published in PubChem BioAssay AID493014 (National Center for Advancing Translational Sciences (NCATS), 2011).
The other results are listed elsewhere or left out. Shown are side measurements of this screen, not its main read-out; they come without a call. Most of these compounds were active or inconclusive in the main read-out, so they are no random draw. Potencies come from curve fits of mixed quality, noted in brackets.

Test: qHTS Assay to Find Inhibitors of Chronic Active B-Cell Receptor Signaling
Details: ABC-DLBCL IkBa-CBG/CBR reporter, luminescence ratio (green luciferase fused to IkBa over red control in TMD8 lymphoma cells), 4 h
Outline: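 Doxycycline induced both beetle luciferases in TMD8 lymphoma cells; IKK-driven degradation limits the IkappaBalpha-fused green signal, while red luminescence normalises for cell number and nonspecific effects. Compounds tested up to 46 uM, 4 hrs.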

[1] = measured here: CBR red luminescence, cell number
[2] = measured here: IkBa-CBG green luminescence

SMILES | AC50 [1] | AC50 [2]
COc1ccccc1NS(=O)(=O)c1cc(NC(=O)c2ccncc2)ccc1N1CCOCC1 | 20.6 µM [rising, single point] | 
COc1ccccc1N/C(N)=N/c1nc(C(F)(F)F)cc(=O)[nH]1 | 3.16 µM [falling, single point] | 
COC(=O)/C(C#N)=C/c1c(N2CCCCCC2)nc2ccccn2c1=O | 22.4 µM [falling, single point] | 
C/C(CC(=O)Nc1cccc(F)c1)=N\NC(=O)C(=O)NC1CCCCC1 | 6.51 µM [falling, partial curve] | 
Cc1cc(C)c2sc(N(CCN(C)C)C(=O)c3c(F)cccc3F)nc2c1 | 10 µM [falling, partial curve] | 
O=C(Cc1cccs1)Nc1nc2c(ccc3ccccc32)s1 | 23.1 µM [falling, single point] | 
CS/C(=C\[N+](=O)[O-])Nc1ccc(C)cc1 | 7.08 µM [falling, full curve] | 
Cc1ccc(S(=O)(=O)CCC(=O)Nc2nc(-c3cccnc3)cs2)cc1 | 3.55 µM [rising, single point] | 
Cc1ccc(C(=O)NC(=S)N2CCN(c3ccc([N+](=O)[O-])cc3)CC2)cc1 | 0.259 µM [rising, full curve, poor fit] | 
CCOC(=O)/C(C#N)=C/C=C1\C=Cc2ccccc2N1CC | 15.8 µM [rising, partial curve, poor fit] | 
C/C(O)=C(\C#N)c1nc2ccccc2[nH]1 | 8.2 µM [falling, partial curve] | 
N#CC1=C(N)Nc2nc3ccccc3n2C1c1ccc(Cl)cc1 (stereo not drawn) | 32.6 µM [falling, partial curve, poor fit] | 
Cc1csc(NC(=O)c2cccc(Cn3nc(C)c(Br)c3C)c2)n1 | 3.98 µM [falling, partial curve, poor fit] | 
CCN(Cc1ccncc1)C(=O)c1cc(COc2c(C)cccc2C)on1 | 35.5 µM [falling, partial curve, poor fit] | 
CCCNC(=O)CS(=O)Cc1nc(-c2ccc(OC)cc2)oc1C (stereo not drawn) | 6.51 µM [falling, single point] | 
CCOC(=O)c1sc(NC(=S)NC(=O)c2ccco2)nc1C |  | 18.4 µM [rising, partial curve, poor fit]
COc1cccc2oc3ccc(C#Cc4ccccn4)cc3c(=O)c12 | 0.794 µM [rising, full curve, poor fit] | 
CC(=O)c1cccc(NC(=O)c2cnn3ccccc23)c1 | 32.6 µM [falling, single point] | 
CC(C)[C@H](NC(N)=O)C(=O)Nc1ccc2c(c1)CCC2 | 35.5 µM [rising, partial curve, poor fit] | 
CC1CN(C(=O)COc2ccc3ccccc3c2)CC(C)O1 (stereo not drawn) | 6.51 µM [rising, partial curve] | 
O=C(NN=C1CCCC1)c1ccc(Cl)cc1 | 35.5 µM [falling, single point] | 35.5 µM [falling, single point]
O=C(Nc1ccc(NC(=O)c2cccs2)cn1)c1ccccc1 | 10 µM [falling, partial curve, poor fit] | 

SMILES | AC50 [1] | AC50 [2]
CCn1c(/N=C/c2c[nH]c3ccccc23)nc2ccccc21 | 11.2 µM [falling, partial curve] | 
COc1cccc(C(=O)NCc2cn3ccsc3n2)c1 | 8.2 µM [rising, partial curve, poor fit] | 
Cc1cccc(N2CCN(CC(O)COc3ccc(Cl)cc3)CC2)c1 (stereo not drawn) | 2.51 µM [falling, partial curve, poor fit] | 
CCN(CC)CCN1c2ccccc2Sc2ccc3ccccc3c21 | 14.1 µM [falling, partial curve] | 
CCC(=O)Nc1c(S(=O)(=O)c2ccccc2)c2nc3ccccc3nc2n1C(C)c1ccccc1 (stereo not drawn) | 16.4 µM [falling, single point] | 
Cc1ccc(SCC(=O)OCC(=O)NCCC2=CCCCC2)cc1 |  | 4.11 µM [falling, partial curve, poor fit]
COC(=O)C1=C(C)NC(=O)CC1c1cc(Br)ccc1F (stereo not drawn) | 1.84 µM [rising, single point] | 
CCOc1ccc(CCNC(=O)c2cc(=O)[nH]c3ccc(S(=O)(=O)N4CCCCC4C)cc23)cc1OCC (stereo not drawn) | 0.447 µM [rising, full curve, poor fit] | 11.2 µM [falling, partial curve, poor fit]
O=C(Cc1ccc(Cl)cc1)Nc1ccc(Br)cc1 | 2.24 µM [rising, full curve] | 
O=C(NCCc1ccccc1)C(c1cccs1)N(C(=O)CCl)c1ccc(Cl)cc1 (stereo not drawn) | 20.6 µM [falling, partial curve] | 23.1 µM [rising, single point]
O=C(Nc1cc(-c2nc3ncccc3o2)ccc1Cl)c1ccc2c(c1)OCO2 | 2.59 µM [rising, single point] | 
CCOC(=O)CCCNC(=O)COC(=O)c1cccc(C)c1O | 10 µM [falling, partial curve] | 
N#Cc1cn(Cc2ccncc2)c(=O)[nH]c1=O | 17.8 µM [rising, single point] | 
CCCCCn1c(CNC(=O)COC)nc2ccccc21 | 6.51 µM [rising, single point] | 
Cc1ccc(S(=O)(=O)Cc2nnnn2-c2ccccc2)cc1 | 0.316 µM [falling, partial curve, poor fit] | 
COc1ccccc1NC(=O)Cn1c(CN2CCCCC2)nc2ccccc2c1=O | 12.6 µM [falling, partial curve, poor fit] | 
COc1ccc(NC(=O)CN(C)S(=O)(=O)c2cccc3nsnc23)cc1OC | 23.1 µM [rising, single point] | 
Cc1[nH]c2ccccc2c1C(=O)COC(=O)c1cccc(S(=O)(=O)N2CCCCC2)c1 | 5.17 µM [falling, partial curve, poor fit] | 
Oc1oc(-c2ccccc2)nc1C=Nc1ccccc1 | 7.08 µM [falling, partial curve] | 
Cc1ccc(O)c(NC(=O)c2noc(C(C)C)c2[N+](=O)[O-])c1 | 0.501 µM [rising, full curve, poor fit] | 
COc1ccc(OC)c(-c2cc(-c3cccnc3)nc(N)c2C#N)c1 | 11.2 µM [falling, partial curve, poor fit] | 
Cc1ccccc1-n1nc2c(c1NC(=O)CCCl)CSC2 | 5.62 µM [falling, single point] | 

SMILES | AC50 [1] | AC50 [2]
O=C(CSc1nc2cc(Cl)ccc2s1)c1cc2ccccc2o1 | 6.51 µM [rising, single point] | 
CCc1nnc2c3cnn(-c4ccccc4)c3ncn12 | 29.1 µM [falling, single point] | 
O=C1c2ccccc2N2C(=O)c3ccccc3C2N1Cc1ccccc1 (stereo not drawn) | 10 µM [falling, partial curve] | 
CCCCN1C=CC(=C2C(=O)c3ccccc3C2=O)C=C1 | 3.98 µM [falling, full curve] | 
CC(CNC(=O)CCn1ccc2cc(S(=O)(=O)N3CCCC3)ccc21)c1ccccc1 (stereo not drawn) | 5.01 µM [falling, single point] | 
CCN(c1ccccc1)S(=O)(=O)c1ccc(C(=O)Nc2nccs2)cc1 | 5.8 µM [falling, partial curve] | 4.61 µM [rising, partial curve, poor fit]
CC(C)(C)NC(=O)Nc1ccc(Br)cc1 | 1 µM [rising, full curve, poor fit] | 
CC(C)CC(=O)N=Nc1c(O)[nH]c2ccccc12 | 28.2 µM [falling, single point] | 
COc1ccc(C(=O)Nc2ccccn2)cc1S(=O)(=O)N1CCOCC1 | 1.41 µM [falling, full curve, poor fit] | 
O=C(O)c1cc(/C=N\O)ccc1OCc1ccccc1 | 5.17 µM [falling, full curve] | 
COc1ccc(Nc2nc(N)nc(CSc3nc(C)cc(C)n3)n2)cc1 | 11.2 µM [rising, partial curve] | 
O=C(CSCc1ccc(Cl)cc1Cl)Nc1nccs1 | 5.8 µM [rising, partial curve] | 
Nc1nc(NC(=O)c2ccc(F)cc2)ns1 | 9.2 µM [falling, partial curve, poor fit] | 
C[C@H]1CN([C@@H](C)CO)C(=O)c2cccc(NS(=O)(=O)c3ccc(F)cc3)c2O[C@H]1CN(C)Cc1ccc(Cl)c(Cl)c1 | 29.1 µM [falling, single point] | 
O=C(Nc1cccc(Cl)c1)N(CCN1CCOCC1)Cc1ccccc1F | 4.11 µM [rising, full curve, poor fit] | 
CC1=CC(C)(C)Nc2ccc(OC(=O)CN3C(=O)C4CCCCC4C3=O)cc21 (stereo not drawn) | 18.4 µM [falling, partial curve, poor fit] | 
O=C(COC(=O)CNC(=O)C1CCCCC1)Nc1ccccc1OC(F)F | 23.1 µM [rising, single point] | 
Cc1ccc(C(=O)N/C(=C\c2ccco2)C(=O)N2CC(C)OC(C)C2)cc1C (stereo not drawn) | 1.12 µM [rising, partial curve, poor fit] | 
COc1ccc(CCN(C)CCC(=O)Nc2cc(C)ccc2C)cc1OC | 0.282 µM [rising, full curve, poor fit] | 
COc1cc2c(cc1OC)CN(C(=O)c1ccc(S(=O)(=O)N3CCCCCC3)cc1)CC2 | 5.17 µM [rising, full curve, poor fit] | 

For convenience, some entries already given:
SMILES | AC50 [1] | AC50 [2]
CC(C)(C)NC(=O)Nc1ccc(Br)cc1 | 1 µM [rising, full curve, poor fit] | 
CC(C)CC(=O)N=Nc1c(O)[nH]c2ccccc12 | 28.2 µM [falling, single point] | 
